Experimental data: patent publication US7662826B2, “Pyrazolo [1,5-a] pyrimidine derivative and nad (p) h oxidase inhibitor containing the same” (Shionogi & Co., Ltd., priority 2002, dated 2010)
Some results were stated once for a whole list of compounds, not compound by compound. For at least one compound, name, drawing or mass did not settle the structure.

Biological target: T1, NADH/NADPH oxidase
T1 construct: Bovine aortic membrane fraction was used as enzyme preparation
Experiment: NADH/NADPH oxidase inhibition activity, lucigenin chemiluminescence, bovine aortic membrane fraction
Format: biochemical
Details: 5 μM lucigenin, 100 μM NADH, 37° C., pH 7.4

`CNC1CCN(c2ccccc2NC(=O)c2cnc3c(-c4cccc(Cl)c4)cnn3c2)CC1` [Compound B3] gave an IC50 of at most 1000 nM.

Work on `COC(=O)C1(NC(=O)c2ccn3ncc(-c4ccc(OCc5ccccc5)cc4)c3n2)CCCCC1` [Compound A326] yielded an IC50 of at most 1000 nM.

Work on `O=C(Nc1ccccc1N1CCN(CC(O)CO)CC1)c1ccn2ncc(-c3cccc(Cl)c3)c2n1` (stereo not shown) [Compound B47] yielded an IC50 of at most 1000 nM.

Work on `CC(C)c1cccc(-c2cnn3ccc(C(=O)Nc4ccc(N5CCNCC5)cc4)nc23)c1` [Compound B325] yielded an IC50 of at most 1000 nM.

For `O=C(Nc1ccc(-c2ccccc2)cc1)c1ccn2ncc(-c3cccc(Cl)c3)c2n1` [Compound B2], the IC50 was at most 1000 nM.

With `O=C(Nc1ccccc1C#CCCNCCO)c1ccn2ncc(-c3cccc(Cl)c3)c2n1` [Compound B90] the IC50 was at most 1000 nM.

Work on `Cc1cccc(-c2cnn3ccc(C(=O)Nc4ccc(N5CCNCC5)cc4)nc23)c1` [Compound B236] yielded an IC50 of at most 1000 nM.

Work on `CCCNC1CCN(c2ccccc2NC(=O)Nc2cnc3c(-c4ccc(Cl)cc4)cnn3c2)CC1` [Compound B41] yielded an IC50 of at most 1000 nM.

`CC(C)NC1CCN(c2ccccc2NC(=O)Nc2cnc3c(-c4ccc(Cl)cc4)cnn3c2)CC1` [Compound B203] was tested, and the IC50 was at most 1000 nM.

Compound `O=C(Nc1cccc(N2CCNCC2)c1)c1ccn2ncc(-c3cc(Cl)cc(Cl)c3)c2n1` [Compound B282] has an IC50 of at most 1000 nM.

`CCCc1ccc(-c2cnn3ccc(C(=O)Nc4ccc(N5CCNCC5)cc4)nc23)cc1` [Compound B248] showed an IC50 of at most 1000 nM.

`CC(C)NC1CCN(c2ccccc2NC(=O)c2cnc3c(-c4cccc(Cl)c4)cnn3c2)CC1` [Compound B9] gave an IC50 of at most 1000 nM.

`NCCCN1CCN(c2ccccc2NC(=O)c2ccn3ncc(-c4cccc(Cl)c4)c3n2)CC1` [Compound B141] gave an IC50 of at most 1000 nM.

`CC(C)NC1CCN(c2ccccc2NC(=O)c2cnc3c(-c4ccc(Cl)cc4)cnn3c2)CC1` [Compound B18] showed an IC50 of at most 1000 nM.

With `CNC1CCN(c2cccc(NC(=O)c3ccn4ncc(-c5ccc(OCc6ccccc6)cc5)c4n3)c2)CC1` [Compound B156] the IC50 was at most 1000 nM.

`CN(C)CCNC1CCN(c2ccccc2NC(=O)c2ccn3ncc(-c4cccc(Cl)c4)c3n2)CC1` [Compound B33] was tested, and the IC50 was at most 1000 nM.

In the case of `O=C(Nc1ccccc1C#CCNCCO)c1ccn2ncc(-c3cccc(Cl)c3)c2n1` [Compound B275], the IC50 is reported as at most 1000 nM.

In the case of `O=C(Nc1ccc(N2CCNCC2)cc1)c1ccn2ncc(-c3cccc4ccccc34)c2n1` [Compound B4], the IC50 is reported as at most 1000 nM.

`O=C(Nc1ccc(OC2CCNCC2)cc1)c1ccn2ncc(-c3cccc(Cl)c3)c2n1` [Compound B238] showed an IC50 of at most 1000 nM.

Work on `O=C(Nc1ccccc1N1CCC(NCCO)CC1)c1ccn2ncc(-c3cccc(Cl)c3)c2n1` [Compound B63] yielded an IC50 of at most 1000 nM.

`COC(=O)CN(CC(=O)OC)C1CCN(c2ccccc2NC(=O)c2ccn3ncc(-c4cccc(Cl)c4)c3n2)CC1` [Compound B124] gave an IC50 of at most 1000 nM.

Work on `Cc1cc(NC(=O)c2ccn3ncc(-c4cccc(Cl)c4)c3n2)ccc1N1CCNCC1` [Compound B56] yielded an IC50 of at most 1000 nM.

In the case of `NC1CCN(c2cccc(NC(=O)c3ccn4ncc(-c5ccc(NCC6CCCCC6)cc5)c4n3)c2)CC1` [Compound B84], the IC50 is reported as at most 1000 nM.

With `O=C(Nc1ccc(N2CCNCC2)c(C(F)(F)F)c1)c1ccn2ncc(-c3cccc(Cl)c3)c2n1` [Compound B244] the IC50 was at most 1000 nM.

In the case of `C=CCNC1CCN(c2ccccc2NC(=O)Nc2cnc3c(-c4ccc(Cl)cc4)cnn3c2)CC1` [Compound B43], the IC50 is reported as at most 1000 nM.

`O=C(Nc1ccc(N2CCNCC2)cc1)c1ccn2ncc(-c3cccc(OC(F)(F)F)c3)c2n1` [Compound B298] gave an IC50 of at most 1000 nM.

`O=C(Nc1cccc(N2CCNCC2)c1)c1ccn2ncc(-c3cccc(OCc4ccccc4)c3)c2n1` [Compound B264] showed an IC50 of at most 1000 nM.

`O=C(Nc1ccc(CC2CCNCC2)cc1)c1ccn2ncc(-c3cccc(Cl)c3)c2n1` [Compound B332] showed an IC50 of at most 1000 nM.

For `CNCC1CCN(c2ccccc2NC(=O)c2ccn3ncc(-c4cccc(Cl)c4)c3n2)CC1` [Compound B139], the IC50 was at most 1000 nM.

Compound `O=C(Nc1cc(-c2ccccc2)ccc1N1CCNCC1)c1ccn2ncc(-c3cccc(Cl)c3)c2n1` [Compound B68] has an IC50 of at most 1000 nM.

Compound `C[C@H](CO)NC1CCN(c2ccccc2NC(=O)c2ccn3ncc(-c4cccc(Cl)c4)c3n2)CC1` [Compound B208] has an IC50 of at most 1000 nM.

Work on `O=C(Nc1cccc(CN2CCNCC2)c1)c1ccn2ncc(-c3cccc(Cl)c3)c2n1` [Compound B221] yielded an IC50 of at most 1000 nM.

For `C[C@H](O)CNC1CCN(c2ccccc2NC(=O)c2ccn3ncc(-c4cccc(Cl)c4)c3n2)CC1` [Compound B207], the IC50 was at most 1000 nM.

`CCN(CC)c1cc(C(=O)Nc2ccc(N3CCNCC3)cc2)nc2c(-c3cccc(Cl)c3)cnn12` [Compound B205] showed an IC50 of at most 1000 nM.

Work on `C=C/C(=C\C)COc1ccc(-c2cnn3ccc(C(=O)Nc4cccc(N5CCC(NCC)CC5)c4)nc23)cc1` [Compound B217] yielded an IC50 of at most 1000 nM.

`O=C(Nc1ccccc1N1CCC(NCCCO)CC1)c1ccn2ncc(-c3cccc(Cl)c3)c2n1` [Compound B52] gave an IC50 of at most 1000 nM.

`O=C(Nc1ccc(OC2CCNC2)cc1)c1ccn2ncc(-c3cccc(Cl)c3)c2n1` (stereo not shown) [Compound B308] gave an IC50 of at most 1000 nM.

Compound `CCNC1CCN(c2cccc(NC(=O)c3ccn4ncc(-c5cccc(Cl)c5)c4n3)c2)CC1` [Compound B81] has an IC50 of at most 1000 nM.

Compound `O=C(Nc1cccc(N2CCNCC2)c1)c1ccn2ncc(-c3ccc(CCc4ccccc4)cc3)c2n1` [Compound B29] has an IC50 of at most 1000 nM.

`NCCC1CCN(c2ccccc2NC(=O)c2ccn3ncc(-c4cccc(Cl)c4)c3n2)CC1` [Compound B174] was tested, and the IC50 was at most 1000 nM.

`C=CCNC1CCN(c2ccccc2NC(=O)Nc2cnc3c(-c4cccc(Cl)c4)cnn3c2)CC1` [Compound B59] was tested, and the IC50 was at most 1000 nM.

Compound `O=C(Nc1ccc(OCCN2CCOCC2)cc1N1CCNCC1)c1ccn2ncc(-c3cccc(Cl)c3)c2n1` [Compound B267] has an IC50 of at most 1000 nM.

With `NC[C@H]1CCCN1c1ccccc1NC(=O)c1ccn2ncc(-c3cccc(Cl)c3)c2n1` [Compound B196] the IC50 was at most 1000 nM.

Compound `CCNC1CCN(c2ccccc2NC(=O)c2ccn3ncc(-c4cccc(Cl)c4)c3n2)CC1` [Compound B246] has an IC50 of at most 1000 nM.

For `CC(C)C1CN(c2ccccc2NC(=O)c2ccn3ncc(-c4cccc(Cl)c4)c3n2)CCN1` (stereo not shown) [Compound B326], the IC50 was at most 1000 nM.

`O=C(Nc1ccccc1C1CCCCC1)c1ccn2ncc(-c3cccc(Cl)c3)c2n1` [Compound A97] showed an IC50 of at most 1000 nM.

Work on `O=C(Nc1ccc(N2CCNCC2)cc1)c1ccn2ncc(-c3cc(F)cc(F)c3)c2n1` [Compound B57] yielded an IC50 of at most 1000 nM.

In the case of `NC[C@@H]1CCCN1c1ccc(NC(=O)c2ccn3ncc(-c4cccc(Cl)c4)c3n2)cc1` [Compound B294], the IC50 is reported as at most 1000 nM.

`CNCCC1CCN(c2ccccc2NC(=O)c2ccn3ncc(-c4cccc(Cl)c4)c3n2)CC1` [Compound B132] showed an IC50 of at most 1000 nM.

In the case of `NCCC1CCCCN1c1ccccc1NC(=O)c1ccn2ncc(-c3cccc(Cl)c3)c2n1.O=C(O)/C=C/C(=O)O` (stereo not shown) [Compound B313], the IC50 is reported as at most 1000 nM.

With `CNC1CCN(c2ccccc2NC(=O)c2cnc3c(-c4ccc(Cl)cc4)cnn3c2)CC1` [Compound B16] the IC50 was at most 1000 nM.

Compound `O=C(Nc1ccccc1N1CC[C@H](NCCO)C1)c1ccn2ncc(-c3cccc(Cl)c3)c2n1` [Compound B171] has an IC50 of at most 1000 nM.

With `O=C(Nc1ccccc1N1CCNCC1)c1ccn2ncc(-c3ccc(C(F)(F)F)cc3)c2n1` [Compound A114] the IC50 was at most 1000 nM.

In the case of `O=C(Nc1ccccc1N1CCNCC1)c1cc(NC2CCCC2)n2ncc(-c3cccc(Cl)c3)c2n1` [Compound B210], the IC50 is reported as at most 1000 nM.

`O=C(Nc1ccc(N2CCNCC2)cc1)c1ccn2ncc(-c3cccc(Cl)c3)c2n1` [Compound B83] showed an IC50 of at most 1000 nM.
